PubChem BioAssay AID652259 | Drosophila RNAi Screening Center – 2013
The screen tested about 22,000 reagents; this is an unselected part of those that have a named target and a result. Of all reagents, 233 (1.1%) were called active. 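Light values are raw, unnormalised plate reads; the ratio scores behind the reporter calls were not deposited.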 No sequences are given here. Not stated in the record: the amount of reagent, the time to read-out, the dose of the treatment.

- Screen: 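Identify new Wingless signalling regulators in fly cells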 (primary screen)
- System: Drosophila clone 8 imaginal disc epithelial cells
- Knock-down reagent: long dsRNA against Drosophila genes
- Conditions: pathway stimulated by co-transfected Wingless expression plasmid
- Measurement: 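Dual luciferase reads per well after Wingless plasmid stimulation: reporter firefly light and Renilla control light; activity is firefly divided by Renilla, a ratio not deposited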
- Direction: firefly reporter light: higher = more Wg reporter light, before normalisation; Renilla control light: higher = more transfected or surviving cells
- Rule for the call: 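Strong candidates differ from their plate mean by at least two out of four per-plate statistical tests; weak candidates meet just one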
- Meaning of the calls: active = candidate regulator (raises or lowers reporter); inactive = not a candidate

CG8314 [DRSC07144]
- firefly reporter light, replicate 1: 17974
- Renilla control light, replicate 1: 4706
- outcome: inactive

G9a [DRSC18619]
- firefly reporter light, replicate 1: 15850
- Renilla control light, replicate 1: 10578
- outcome: inactive

CG4409 [DRSC06869]
- firefly reporter light, replicate 1: 5286
- Renilla control light, replicate 1: 2307
- outcome: inactive

Tbc1d22 [DRSC15867]
- firefly reporter light, replicate 1: 2221
- firefly reporter light, replicate 2: 4716
- Renilla control light, replicate 1: 1089
- Renilla control light, replicate 2: 1526
- outcome: inactive

ttv [DRSC07709]
- firefly reporter light, replicate 1: 15576
- Renilla control light, replicate 1: 3651
- outcome: inactive

CG40341 (retired record) [DRSC01767]
- firefly reporter light, replicate 1: 18072
- Renilla control light, replicate 1: 11194
- outcome: inactive

CG40341 (retired record) [DRSC03750]
- firefly reporter light, replicate 1: 21392
- Renilla control light, replicate 1: 11990
- outcome: inactive

CG4658 [DRSC02768]
- firefly reporter light, replicate 1: 1393
- firefly reporter light, replicate 2: 5925
- Renilla control light, replicate 1: 822
- Renilla control light, replicate 2: 2117
- outcome: inactive

CG34289 [DRSC13625]
- firefly reporter light, replicate 1: 4272
- Renilla control light, replicate 1: 1968
- outcome: inactive

Trs20 [DRSC10489]
- firefly reporter light, replicate 1: 7451
- Renilla control light, replicate 1: 2256
- outcome: inactive

CG13442 [DRSC06402]
- firefly reporter light, replicate 1: 5024
- Renilla control light, replicate 1: 2249
- outcome: inactive

Chd1 [DRSC00745]
- firefly reporter light, replicate 1: 11085
- Renilla control light, replicate 1: 3633
- outcome: inactive
